No constants are given. Whether binding was seen depends on the method and setting. Some entries that bind do so weakly or less than the wild type.
Tests used:
[1] = target: T1, CAPRIN-1 in tumor tissues of transplanted mouse cancer cell lines (mouse) (UniProt Q60865); experiment: immunohistochemical staining of PFA-fixed frozen sections of mouse tumors, 10 µg/ml antibody
T1 sequence (looked up): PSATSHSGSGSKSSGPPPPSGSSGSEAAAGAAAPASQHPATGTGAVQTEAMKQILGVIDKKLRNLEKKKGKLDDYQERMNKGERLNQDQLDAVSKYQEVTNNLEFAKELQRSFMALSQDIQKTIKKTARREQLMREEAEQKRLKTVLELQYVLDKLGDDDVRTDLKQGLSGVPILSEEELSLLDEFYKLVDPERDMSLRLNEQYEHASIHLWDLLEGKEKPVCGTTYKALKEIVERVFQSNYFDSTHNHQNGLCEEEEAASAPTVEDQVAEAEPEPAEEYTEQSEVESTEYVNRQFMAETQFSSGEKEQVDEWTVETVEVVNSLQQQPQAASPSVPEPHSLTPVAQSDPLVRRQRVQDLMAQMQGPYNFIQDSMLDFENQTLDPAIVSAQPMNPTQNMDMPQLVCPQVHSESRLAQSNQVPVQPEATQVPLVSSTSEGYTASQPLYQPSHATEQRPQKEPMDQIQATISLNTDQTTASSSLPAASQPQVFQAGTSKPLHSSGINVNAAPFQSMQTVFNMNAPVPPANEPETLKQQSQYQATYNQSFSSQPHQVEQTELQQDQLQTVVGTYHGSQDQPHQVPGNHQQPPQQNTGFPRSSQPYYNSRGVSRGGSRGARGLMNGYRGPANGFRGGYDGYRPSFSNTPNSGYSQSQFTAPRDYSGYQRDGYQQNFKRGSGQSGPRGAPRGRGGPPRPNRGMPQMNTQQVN

[2] = target: T2, polypeptide consisting of the amino acid sequence of SEQ ID NO: 66 (human); experiment: ELISA, polypeptide coupled to Immobilizer Amino plate, culture supernatant of #14, HRP anti-mouse IgG
T2 sequence (peptide): QQPQAASPSVPE

[3] = target: dog CAPRIN-1 in dog breast cancer tissues (dog); experiment: immunohistochemical staining of frozen dog breast cancer tissue sections, 10 µg/ml antibody

binding [1]: binds
binding [2]: binds
binding [3]: binds
B1: mouse anti-human CAPRIN-1 monoclonal antibody #14 (antibody, V domains shown)
VH: GGGLVQPGGSMRLSCVASGFTFSNSWFNWVRQSPEKGLEWVAEIRLTSDNYAIYYAESVKGRFTISRDDSKSSVYLQMNNLRAEDTGIYYCTRPETARATFAYWGQGTTVTVSS
VL: DVLMTQTPLSLPVSLGDQASISCRSSQSIVHSNGNTYLEWYLQKPGQSPKVLIYKVFNRFSGVPDRFSGSGSGTDFTLKISRVEAEDLGVYYCFQGSHVPRTFGGGTKLNQTG
